# Measurements: paper PMC12040169 (PLOS Biology, 2025)
# The list shows a part of the results.
# System: T1, CTL2-GFP (C. trachomatis L2/434/Bu, GFP-expressing)
# T1 construct: L2/434/Bu, GFP-expressing
# Parameters: species or system HeLa; Intracellular C. trachomatis growth in HeLa cells, bulk GFP fluorescence relative to DMSO
# Settings: bulk GFP, single well; 28.5 h, 10 µM; inhibitor
row,SMILES,% of control remaining [%]
1,O=C(c1ccc(F)cc1)[C@H]1CCCN(C(=O)C2CC2)C1 [CBK284326],116.922
2,CC(CCCc1ccccc1)NC(=O)c1cc2c([nH]c1=O)CCC2 (stereo not shown) [CBK281528],150.687
3,CN1C(=O)C(CCNc2ccccc2)S/C1=N/C1CC2C=CC1C2 (stereo not shown) [CBK073812],63.5694
4,Clc1cccc(-c2cncc(N3CCN(Cc4ccccn4)CC3)n2)c1 [CBK037282],157.354
5,COc1ccc(NC(=O)c2cc(-c3cccnc3)nc3c(C)c(C)ccc23)c(OC)c1 [CBK267746],117.512
6,CC(=O)N1CCC[C@H]2NC(=O)CNC(=O)C3(C/C=C/C[C@H]21)CCN(Cc1ccccc1O)CC3 [CBK292054],129.138
7,O=C(NC1CC1)c1cc(C2CCCN(Cc3cccc(F)c3)C2)no1 (stereo not shown) [CBK284588],79.1336
8,O=C(c1cc2c(F)cccc2[nH]1)N(CCO)CCc1ccncc1 [CBK281644],117.478
9,Nc1nc2nn([C@H]3C[C@@H](O)[C@@H](CO)O3)cc2c(=O)[nH]1 [CBK201218],81.8582
10,Cc1c(C(=O)N2CCC(CN)C2)nnn1-c1ccc2ncccc2c1 (stereo not shown) [CBK304734],129.198
11,c1ccc(COc2ccc(N3CCNCC3)cc2)cc1 [CBK012776C],128.025
12,CCCCC(Sc1nc(N)cc(Cl)n1)c1cc(C)ccn1 (stereo not shown) [CBK016827],63.0681
13,COC(C)(C(=O)Nc1ccc(Cl)nc1)c1cccc2ccccc12 (stereo not shown) [CBK091350],92.4925
14,N#Cc1ccc(NC(=O)NCCc2cccs2)cc1 [CBK043736],108.376
15,Cc1c(Cl)cccc1S(=O)(=O)Nc1c(C(=O)O)[nH]c2ccccc12 [CBK049889],118.002
16,Cc1cc(C(=O)CSc2nnnn2-c2ccc(O)cc2)c(C)n1Cc1ccc(F)cc1 [CBK297081],140.279
17,O=C(O)CCCn1cc(NC(=O)c2ccc(Br)o2)cn1 [CBK270042],93.5127
18,COc1ccc(N2C(=O)CSC23C(=O)Nc2ccc(Br)cc23)cc1 (stereo not shown) [CBK093454],104.603
19,NCC1OCCc2ccccc21 (stereo not shown) [CBK027717],114.43
20,c1ccc(CCN2CCC(Oc3cncc(OCCN4CCOCC4)n3)C2)cc1 (stereo not shown) [CBK084497],140.858
21,CCN(Cc1ccccc1)C(=O)Nc1ccc(C)cc1 [CBK155248],93.8219
22,O=C(NCCN1CCCCC1)c1cccc(Oc2ccccc2)c1 [CBK270335],100.913
23,Cc1cc(C)n(CC2(CNC(=O)C(c3ccccc3F)N(C)C)CC2)n1 (stereo not shown) [CBK306920],113.553
24,O=C(c1ccccc1Cl)N1N=C(c2cccnc2)CC1c1ccccc1O (stereo not shown) [CBK269182],156.323
25,CC(C(=O)N1CCOCC1)N(c1cc(Cl)ccc1Cl)S(C)(=O)=O (stereo not shown) [CBK270270],137.597
26,CC(NC(=O)CCc1cccnc1)c1nc(-c2ccncc2)cs1 (stereo not shown) [CBK306243],121.377
27,Cc1ccc(-c2nnc(CNC(=O)c3cccc(F)c3F)o2)s1 [CBK284641],130.254

row,SMILES,% of control remaining [%]
1,Cn1nccc1NS(=O)(=O)c1cccc2cccnc12 [CBK062069],96.4433
2,COCCNc1nc(-c2cc(C(C)C)ccc2OC)ccc1C(=O)NCCNC(C)=O [CBK105985],100
3,NC(=O)c1nc(-c2ccccc2)nc2c1[nH]c(=O)n2-c1cccc(Cl)c1 [CBK287544],124.093
4,CCC12CN3CC(CC)(CN(C1)C3c1ccc([N+](=O)[O-])cc1)C2=O (stereo not shown) [CBK263689],129.189
5,CCCN1C(=S)N(CCO)C(=O)/C1=C/C=C1/Oc2ccccc2N1CCC(=O)O [CBK261400],100
6,CSCC(=O)N1C[C@@H]2C[C@H](C1)c1c(-c3cncnc3)ccc(=O)n1C2 [CBK289195],147.838
7,CC(=O)Nc1ccc(S(=O)(=O)Nc2ccnc(N3CCNCC3)n2)cc1 [CBK000363C],80.6402
8,CC1(C)CC(NC(=O)C2CCCN(S(C)(=O)=O)C2)c2ccccc2O1 (stereo not shown) [CBK304365],110.793
9,c1cnc2[nH]c(C3CC3)c(CN3CCN4CCCCC4C3)c2c1 (stereo not shown) [CBK285313],152.653
10,Cc1cc(C=O)c(C)n1-c1ccc(Oc2ccc([N+](=O)[O-])cn2)cc1 [CBK264167],82.4789
11,OCCn1ncc2c(NCc3cccnc3-n3cccn3)ncnc21 [CBK305977],130.732
12,COc1cccc(C2=CC(c3ccccc3Cl)N3N=NNC3=N2)c1 (stereo not shown) [CBK287943],146.857
13,O=C(O)CCCCN1C(=O)c2ccccc2S1(=O)=O [CBK287189],119.557
14,CCCNC(=O)c1ccc(C)c(NC(=O)NC2CCOC2)c1 (stereo not shown) [CBK306794],114.222
15,COc1ccc(-c2nnc([C@H]3CCN(Cc4ccccn4)C3)o2)cc1 [CBK289401],119.265
16,CCOC(=O)C(N)CSC1CC(=O)N(c2ccc(Br)cc2)C1=O (stereo not shown) [CBK017250C],132.756
17,CCSc1ccnc2c1c(=O)n(C)c(=O)n2C [CBK287749],118.76
18,CN1CCN(C(=O)c2ccc(-c3ccc(N4CCOCC4)cc3)nc2N(C)C)CC1 [CBK106114],100
19,CC(=O)NC1(c2ccc(F)cc2)CCN(C(=O)C2CCCCC2)CC1 [CBK283546],109.419
20,O=c1ccc(-c2cccs2)nn1C[C@H]1CCCN1 [CBK284313],129.17
21,CNC(=O)CSc1nccnc1N1CCCC1 [CBK107748],117.52
22,COC(=O)c1ccsc1NS(=O)(=O)c1ccccc1 [CBK026667],115.244
23,CC(NC(=O)C1CCN(Cc2ncc[nH]2)CC1)c1ccc(F)cc1 (stereo not shown) [CBK148037],118.963
24,Cc1ccc(-n2c3nc(=O)[nH]c(=O)c-3cc3c(Cl)cccc32)c(C)c1 [CBK287965],96.5641
25,COc1ccc(CSc2nc3sc4c(c3c(=O)n2Cc2ccccc2)CCN(Cc2ccccc2)C4)cc1 [CBK263714],123.014
26,COc1ccc([C@@]23CC[C@@H](NC(=O)Nc4cccc(S(=O)(=O)C(F)(F)F)c4)C[C@@H]2N(C)CC3)cc1OC [CBK051275T],101.718
27,CCCCN(C)c1nccnc1-c1ccc(CO)cc1 [CBK037666],104.939

row,SMILES,% of control remaining [%]
1,COc1ccc(S(=O)(=O)N2CCN(C(=O)COc3ccc4ccccc4c3)CC2)cc1 [CBK263371],132.021
2,CCn1cncc1CN1CC2CCCC(O)(c3ccc(C)cc3)C2C1 (stereo not shown) [CBK284374],112.063
3,O=C(CCN1CCCCC1)Nc1ccc2c(=O)n3c(nc2c1)/C(=C/c1ccccc1)CC3 [CBK017786],11.8318
4,COc1ccc(NC(=O)C2CCCN2c2nc(O)cc(C(F)(F)F)n2)c(OC)c1 (stereo not shown) [CBK003951],104.419
5,O=C(c1cccc2ncccc12)N1CC[C@@H](c2ccccc2)[C@H](O)C1 [CBK283716],124.021
6,Cc1cnn(C2(C(=O)O)CCN(C(=O)c3cccc(C#N)c3)CC2)c1 [CBK307058],88.8597
7,CCOc1ccc(/N=C2/SC(C(=O)O)CC(=O)N2Cc2ccc3c(c2)OCO3)cc1 (stereo not shown) [CBK263296],113.978
8,Fc1ccc2c(-c3ccccc3)noc2c1 [CBK025975],128.571
9,O=C(NC1CCN(Cc2cc(F)cc(F)c2)CC1)c1cn2ccsc2n1 [CBK306970],118.707
10,O=C1NCC2(C/C=C/CCOc3ccccc31)CCN(C(=O)CCN1CCCC1=O)CC2 [CBK292016],158.056
11,N#CCCN(C(=O)Nc1ccc(Cl)cc1)C1CCCCC1 [CBK156365],88.4042
12,CC(C(=O)Nc1cccc2[nH]ccc12)c1ccc(Cl)cc1 (stereo not shown) [CBK159647],114.954
13,CN1CCC(CN(C)Cc2ccc3cccc(Cl)c3n2)C1 (stereo not shown) [CBK282615],116.79
14,COc1cc(CNC23CC4CC(CC(C4)C2)C3)c(Cl)cc1OCC(=O)O [CBK269567],150.369
15,CCOC(=O)c1ccccc1NS(=O)(=O)c1ccc(C)c([N+](=O)[O-])c1 [CBK045451],107.739
16,CC(=O)Nc1cc(S(N)(=O)=O)c(F)cc1C [CBK034356],143.84
17,CC(=O)Nc1ccc(S(=O)(=O)NCCSc2ccccn2)cc1 [CBK263576],100
18,Cc1nc(C)n(CC2CCCN(Cc3nc4c(F)cccc4[nH]3)C2)n1 (stereo not shown) [CBK306218],136.882
19,COc1cc([C@@]23CC[C@@H](NC(=O)Nc4ccc(F)c(F)c4)C[C@@H]2N(C)CC3)ccc1O [CBK049958C],99.2608
20,NC(=O)NCc1ccc(F)cc1 [CBK019769],109.114
21,CCN(CCN1CCOCC1)C(=O)c1[nH]c2c(F)cccc2c1C [CBK306772],118.614
22,Cc1nc2cc(C(=O)N(C)CCN3CCCCC3)ccc2n1C [CBK281854],157.344
23,CC(C)c1ccc(CNC(=O)c2ccc(-c3ccoc3)nc2)cc1 [CBK156292],98.9763
24,CCC(=O)Nc1nc2c(OC)ccc(C)c2s1 [CBK287616],114.781
25,O=C(O)c1cccc(NC(=O)c2ccc(CSc3ccc(Br)cc3)cc2)c1 [CBK263226],118.126

# A run of entries taken from the entries so far:
row,SMILES,% of control remaining [%]
6,Cc1cnn(C2(C(=O)O)CCN(C(=O)c3cccc(C#N)c3)CC2)c1 [CBK307058],88.8597
7,CCOc1ccc(/N=C2/SC(C(=O)O)CC(=O)N2Cc2ccc3c(c2)OCO3)cc1 (stereo not shown) [CBK263296],113.978
8,Fc1ccc2c(-c3ccccc3)noc2c1 [CBK025975],128.571
9,O=C(NC1CCN(Cc2cc(F)cc(F)c2)CC1)c1cn2ccsc2n1 [CBK306970],118.707
10,O=C1NCC2(C/C=C/CCOc3ccccc31)CCN(C(=O)CCN1CCCC1=O)CC2 [CBK292016],158.056
